Here are results for one substance from publication PMC9230030 (Pharmaceuticals, 2022).

This series in a line: general procedure: Fmoc solid-phase peptide synthesis. The following applies: whole synthesis.

HELM strings list residues between dots; [ac] is acetyl, [am] amide, other brackets name non-standard units.

Regarding PEPTIDE1{P.V.R.S.S.N.C.A}$$$$V2.0, the “crude HPLC purity” value (220 nm) was determined as 89%. In addition, the crude yield (overall) was about 30%.
